The chains behind the UniProt entries cited, without tags or fusion partners.
UniProt Q92830, whole entry, looked up: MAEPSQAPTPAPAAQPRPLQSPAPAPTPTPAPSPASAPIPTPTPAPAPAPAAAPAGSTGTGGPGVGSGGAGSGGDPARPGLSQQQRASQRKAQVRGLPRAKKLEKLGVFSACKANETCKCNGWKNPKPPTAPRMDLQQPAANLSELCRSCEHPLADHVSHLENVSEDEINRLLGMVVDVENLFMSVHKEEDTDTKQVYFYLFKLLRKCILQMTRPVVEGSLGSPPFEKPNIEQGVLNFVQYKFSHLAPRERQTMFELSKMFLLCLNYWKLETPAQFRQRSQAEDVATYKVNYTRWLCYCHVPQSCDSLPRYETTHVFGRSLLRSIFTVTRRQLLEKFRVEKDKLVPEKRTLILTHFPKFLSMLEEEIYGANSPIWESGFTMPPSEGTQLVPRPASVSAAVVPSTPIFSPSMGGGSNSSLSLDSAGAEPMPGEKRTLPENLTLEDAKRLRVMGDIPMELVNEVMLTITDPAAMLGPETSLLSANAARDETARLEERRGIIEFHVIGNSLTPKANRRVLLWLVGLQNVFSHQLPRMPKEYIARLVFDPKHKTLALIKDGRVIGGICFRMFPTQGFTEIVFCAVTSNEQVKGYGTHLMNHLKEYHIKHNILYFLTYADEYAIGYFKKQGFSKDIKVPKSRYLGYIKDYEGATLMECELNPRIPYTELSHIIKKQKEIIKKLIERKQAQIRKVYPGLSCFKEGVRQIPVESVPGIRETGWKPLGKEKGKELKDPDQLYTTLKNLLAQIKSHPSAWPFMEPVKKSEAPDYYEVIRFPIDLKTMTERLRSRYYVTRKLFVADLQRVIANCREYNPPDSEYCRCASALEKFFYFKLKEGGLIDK

About 820 (0.21%) of roughly 390,000 compounds were called active. Inconclusive results, whose numbers are uncertain, are shown with a selection of clear calls. The call rests on the fitted dose curve; in most records, active means well fitted inhibition curve with a large enough effect; inconclusive means small, poorly fitted or top-dose-only effect, or another doubt; inactive means no such curve, though single readings can be large or run the other way. Potencies beside an inconclusive call are fits to weak or partial responses and may not hold up.
Each compound was assayed against Histone acetyltransferase KAT2A (Homo sapiens) (UniProt Q92830) (assay: qHTS Assay for Inhibitors of GCN5L2). Settings: GCN5L2 HAT assay, ThioGlo1 CoA-SH fluorescence; activity change, negative = inhibition: at 58.9 µM (top of the series) unless noted.
How it was run: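 Free CoA generated was detected with ThioGlo1 (50uM) fluorescence at Ex340nm/Em540nm, read immediately and after 20 min at room temperature. Enzyme, 20 nM in HEPES pH 7.5 buffer, saw compounds 15 min before adding 75uM H3(1-25) peptide and 70uM acetyl-CoA.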
In the case of COc1ccc(-c2csc3nc(C(C)(C)C)oc(=O)c23)cc1OC, the Potency is reported as inconclusive: 1.26 µM [inhibitor, full curve, poor fit]. With CCc1cc(=O)oc2cc(C)cc(OCC(=O)NCc3ccccn3)c12 the Potency was inconclusive: 39.8 µM [inhibitor, partial curve, poor fit]. O=C(O)c1ccc(N2C(=O)CC(N3C(=O)/C(=C/c4ccc(Cl)cc4)SC3=S)C2=O)cc1 (stereo not given) was tested, and the Potency was inconclusive: 12.6 µM [inhibitor, partial curve, poor fit]. With Cc1ccc(CN2[C@@H]3c4ccccc4C[C@@H]3OCCS2(=O)=O)cc1 the Potency was inconclusive: 3.55 µM [inhibitor, single point]. In the case of O=C1CCC(=O)N1c1nc2n(n1)C(c1ccccc1)C=C(c1ccc(Br)cc1)N2 (stereo not given), the Potency is reported as inconclusive: 39.8 µM [inhibitor, single point]. For Cn1c(=O)[nH]c(=O)c2c1nc(Br)n2Cc1cccc(Br)c1, the Potency was inconclusive: 7.08 µM [inhibitor, single point]. With Cc1ccc(NS(=O)(=O)c2ccc(C(=O)N3CCCCCCC3)cc2)cc1 the “activity change, negative = inhibition” value was inactive: -0.995%. For O=C(CN1CCN(c2ccc(O)cc2)CC1)NC(c1ccccc1)c1ccccc1, the “activity change, negative = inhibition” value was inactive: 3.05%. CCCCCCCN1C(Nc2ccccc2)=NC[C@@H]1Cc1ccccc1 was tested, and the “activity change, negative = inhibition” value was inactive: -10.2%. With COc1ccc2cc3cc(C(=O)Nc4ccccc4N4CCN(C)CC4)oc3nc2c1 the Potency was inconclusive: 39.8 µM [inhibitor, single point]. In the case of COc1ccc(N(C(=O)c2ccc(S(=O)(=O)N3CCOCC3)cc2)C2C=CS(=O)(=O)C2)cc1 (stereo not given), the Potency is reported as active: 2.24 µM. For Cc1ccc(-c2csc(NC(=O)/C=C/c3cccs3)n2)cc1C, the Potency was inconclusive: 22.4 µM [inhibitor, single point]. In the case of O=C(CCC(=O)N1CCN(c2ccccc2F)CC1)N1CCN(c2ccccc2)CC1, the “activity change, negative = inhibition” value is reported as inactive: -2.41%. For O=C(CC1C[C@H](C(=O)N2CCOCC2)[C@@]2(CCC3CCCC3)c3[nH]c4ccccc4c3CCN2C1=O)NCCC1=CCCCC1 (stereo not given in full), the “activity change, negative = inhibition” value was inactive: 0.969%. With Cc1ccc(CCN2CC(C(=O)NCCN3CCOCC3)CC2=O)cc1 (stereo not given) the Potency was inconclusive: 1 µM [inhibitor, single point]. For COc1cc(C2C(C(C)=O)=C(O)C(=O)N2CCc2c[nH]c3ccccc23)ccc1O (stereo not given), the “activity change, negative = inhibition” value was inactive: -0.292%. With C=CCSc1nc(N)c(C#N)c(-c2ccc(C)cc2)c1C#N the Potency was inconclusive: 28.2 µM [inhibitor, single point]. For O=c1c(-c2ccc3c(c2)OCCO3)coc2cc(O)cc(O)c12, the Potency was inconclusive: 39.8 µM [inhibitor, single point]. With Cc1ccc(S(=O)(=O)c2cc(O)ccc2O)cc1C the “activity change, negative = inhibition” value was inactive: -1.12%. For CC1CCN(S(=O)(=O)c2ccc3ncn(CC(=O)Nc4ccccc4C(F)(F)F)c(=O)c3c2)CC1, the “activity change, negative = inhibition” value was inactive: -2.91%. In the case of COc1ccc(NC2CCCN(C(=O)c3ccccc3C(F)(F)F)C2)cc1 (stereo not given), the “activity change, negative = inhibition” value is reported as inactive: -10.2%. With CCn1cc(C(=O)N[C@H](C(=O)NCCO)C(C)C)c(=O)c2cc3c(cc21)OCO3 the Potency was inconclusive: 39.8 µM [inhibitor, partial curve]. With O=C(/C=C/c1ccc([N+](=O)[O-])cc1)Nc1cccc(C(=O)Nc2ccccc2C(=O)O)c1 the Potency was inconclusive: 39.8 µM [inhibitor, single point]. C/C(=N\NC(=O)c1cccc(S(=O)(=O)N2CCCC2)c1)c1cccs1 was tested, and the Potency was inconclusive: 39.8 µM [inhibitor, single point]. With CCN1CCN(c2ccc(N3CCN(C(=O)c4ccc(Br)o4)CC3)nn2)CC1 the Potency was inconclusive: 31.6 µM [inhibitor, single point]. For O=C(COC(=O)c1ccccc1C(=O)c1ccccc1)c1ccco1, the Potency was inconclusive: 14.1 µM [inhibitor, single point]. CC(C)Cc1nc2oc3c(NCCCN4CCOCC4)ncnc3c2c2c1CCC2 was tested, and the “activity change, negative = inhibition” value was inactive: -3.84%. For Cc1nnsc1C(=O)NNc1c(Cl)cccc1Cl, the Potency was inconclusive: 20 µM [inhibitor, partial curve]. For CS/C(=N\S(=O)(=O)c1cccs1)NC(=O)CSc1nc2ccccc2s1, the Potency was inconclusive: 39.8 µM [inhibitor, single point]. CC(C)(C)c1ccc(OCC(=O)Nc2ccc(C(=O)Nc3ccccc3C(=O)O)cc2)cc1 was tested, and the Potency was active: 31.6 µM. With COc1ccc(C2NC(=S)N(c3ccccc3)C(C)=C2C(=O)Nc2ccccc2)cc1 (stereo not given) the “activity change, negative = inhibition” value was inactive: -20%. With CSc1ccc(S(=O)(=O)NCC(=O)OCC(=O)N2CC(C)CC(C)C2)cc1[N+](=O)[O-] (stereo not given) the Potency was inconclusive: 12.6 µM [inhibitor, partial curve]. Cc1cc(NC(=O)COC(=O)c2ccc(S(=O)(=O)N3CCCc4ccccc43)cc2)no1 was tested, and the “activity change, negative = inhibition” value was inactive: -14.5%. For Cc1nc(C)c(-c2ccc(SCC(=O)Nc3ccc(C)c(Cl)c3)nn2)s1, the Potency was inconclusive: 0.891 µM [inhibitor, full curve, poor fit]. With C/C(=N/NC(=O)CSc1nc2ccccc2n1C)c1ccco1 the Potency was inconclusive: 5.01 µM [inhibitor, single point]. With Cc1cccc(OCC(=O)Nc2nnc(S(=O)(=O)N3CCC(C)CC3)s2)c1 the Potency was inconclusive: 0.708 µM [inhibitor, single point]. With CCc1ccc(NC(=O)c2nnn(Cc3cccc(C(F)(F)F)c3)c2N)cc1 the “activity change, negative = inhibition” value was inactive: -5.21%. CCCCNc1c(-c2ccc(SC3CCCCC3)c(OC)c2)nc2ccc(C)cn12 was tested, and the Potency was inconclusive: 25.1 µM [inhibitor, partial curve]. For O=C(NCCN1CCOCC1)c1cc2c(=O)n3ccccc3nc2n1Cc1ccccc1, the Potency was inconclusive: 31.6 µM [inhibitor, single point]. CN1c2ccccc2N(C)C1(C)c1ccccc1 was tested, and the “activity change, negative = inhibition” value was inactive: -8.75%. O=C(Nc1ccc(F)c(F)c1)NC1CCCCC1 was tested, and the Potency was inconclusive: 3.55 µM [inhibitor, single point]. With COc1c(Br)cc([N+](=O)[O-])c(OC)c1C(=O)NC(=O)Nc1c(Cl)cccc1Cl the Potency was inconclusive: 1 µM [inhibitor, single point]. With Cn1nccc1C(=O)N1CCN(c2cccc(Cl)c2)CC1 the Potency was inconclusive: 5.62 µM [inhibitor, full curve, poor fit]. COc1ccc2cc3c(N)nn(C(=O)c4ccc(Cl)c([N+](=O)[O-])c4)c3nc2c1 was tested, and the “activity change, negative = inhibition” value was inactive: -2.25%. COCCn1nnnc1C(c1cccs1)N1CCN(c2cc(C)ccc2C)CC1 (stereo not given) was tested, and the Potency was inconclusive: 39.8 µM [inhibitor, single point]. With Cc1cc(=O)oc2c3c(cc(OCC(=O)NCCC(=O)N[C@@H](C)C(=O)O)c12)OC(C)(C)CC3 the Potency was inconclusive: 31.6 µM [inhibitor, single point]. For CC(=O)Nc1ccc2nc3c(=O)n(C)c(=O)n(C)c3nc2c1, the Potency was inconclusive: 35.5 µM [inhibitor, single point]. In the case of COc1cc(NC(=O)Cc2ccc(Cl)cc2)ccc1NC(=O)c1ccco1, the Potency is reported as inconclusive: 39.8 µM [inhibitor, single point]. With COc1cc(-c2nc(C(=O)NC3CCN(Cc4ccccc4)CC3)cc3c2[nH]c2ccccc23)cc(OC)c1OC the Potency was inconclusive: 31.6 µM [inhibitor, single point]. With CCC(/C=C1\Sc2ccc(OC)cc2N1CCO)=C\c1sc2ccc(OC)cc2[n+]1CCO the Potency was inconclusive: 39.8 µM [inhibitor, single point]. With CC1=NN(c2ccc(Cl)cc2)C(=O)C1C(c1ccccc1O)c1c(C)[nH]n(-c2ccc(Cl)cc2)c1=O (stereo not given) the “activity change, negative = inhibition” value was inactive: 4.79%. With O=S(=O)(c1ccccc1)N1CCN=C1SCc1c(F)cccc1Cl the Potency was inconclusive: 25.1 µM [inhibitor, partial curve, poor fit]. In the case of CCOc1ccc(/C=C(\C#N)C(=O)Nc2sc3c(c2C(=O)OC)C(C(=O)OC)CC3)cc1OC (stereo not given), the Potency is reported as inconclusive: 39.8 µM [inhibitor, single point]. In the case of O=C1OC2(c3cc(I)c(O)c(I)c3Oc3c2cc(I)c(O)c3I)c2c(Cl)c(Cl)c(Cl)c(Cl)c21, the Potency is reported as active: 3.16 µM. CCOC(=O)c1ccc(N2CSC3=C(C#N)C(c4ccc(OC)cc4OC)CC(=O)N3C2)cc1 (stereo not given) was tested, and the Potency was inconclusive: 35.5 µM [inhibitor, single point]. With Cc1cc2c(cc1S(=O)(=O)CCC(=O)N1CC(C)CC(C)C1)OCC(=O)N2 (stereo not given) the Potency was inconclusive: 3.98 µM [inhibitor, single point]. In the case of Cc1nc2c(C(=O)NCCc3ccc(Cl)cc3)c[nH]n2c(=O)c1Cc1ccccc1F, the Potency is reported as inconclusive: 39.8 µM [inhibitor, single point]. COc1ccc(NC(=O)CSc2nnc(C(C)C)n2N)cc1 was tested, and the Potency was inconclusive: 1.58 µM [inhibitor, partial curve]. NCCCNc1ccc([N+](=O)[O-])cc1C(F)(F)F was tested, and the Potency was inconclusive: 0.158 µM [inhibitor, partial curve, poor fit]. With COc1ccccc1NC(=O)CC1S/C(=N/N=C(\C)C2CCCCC2)NC1=O (stereo not given) the Potency was inconclusive: 0.891 µM [inhibitor, partial curve, poor fit]. In the case of O=C(NC1CCCCC1)C(c1ccc(F)cc1)N(CCCN1CCOCC1)C(=O)c1ccc(CN2CCOCC2)o1 (stereo not given), the Potency is reported as inconclusive: 7.08 µM [inhibitor, single point]. In the case of Cc1c(O)ccc2c(CN3CCOCC3)cc(=O)oc12, the Potency is reported as inconclusive: 39.8 µM [inhibitor, single point]. For CC1CC(C)CN(C(=O)c2nn(C)c3c2CSc2ccccc2-3)C1 (stereo not given), the Potency was inconclusive: 39.8 µM [inhibitor, partial curve, poor fit]. CN1CCN(C(=S)NC(=O)c2ccccc2Cl)CC1 was tested, and the “activity change, negative = inhibition” value was inactive: 1.3%. For CCn1c(SCC(=O)NCCc2ccc(F)cc2)nnc1-c1cccs1, the Potency was inconclusive: 39.8 µM [inhibitor, single point].

Reference: PubChem BioAssay AID504327 (National Center for Advancing Translational Sciences (NCATS), 2011)
On the % scale 0 is the no-effect control and ±100 the full control effect; potency means the concentration at half of the fitted maximal effect.
